Percent effect of library compounds

Data taken from ChEMBL document CHEMBL3988442, “University of Dundee, Small-Polar-MMV Screening Library” (2021).

Mtb cholesterol medium: 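Phenotypic screen: M. tuberculosis growth, cholesterol and DPPC medium, 4 days; the read-out is not stated. Concentration: 50 µM. Direction is inferred from retests: higher values go with more growth inhibition. Of about 69,000 compounds tested this way, about 370 (0.54%) reached 50% or more in at least one test.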
Mtb glucose medium: 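Growth of Mycobacterium tuberculosis over 3 days (7H9 medium with glucose and tyloxapol); the read-out is not stated. Compounds at 50 µM. Direction is inferred from retests: higher values go with more growth inhibition. About 69,000 compounds were tested under these conditions; 1.1% (about 760) showed 50% or more at least once.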

The filed quantity is “Percent Effect” (%).
How 0% and 100% were set is not recorded. Most values in the screen are low, and negative values occur.
The compounds are a random part of those screened.
Two or more numbers in one place are separate tests of the same structure; such repeats can differ widely.

structure | Mtb cholesterol medium | Mtb glucose medium
CNS(=O)(=O)CCCN1CCCC1c1noc(C2CC2)n1 (stereo not shown) | 4.393 | -12.92
Cn1cccc1C(=O)NC1(C(=O)NCC2CC2)CCCC1 | 5.918 | 3.358
CCc1ccc(NS(=O)(=O)c2cc3c(c(C(=O)O)c2)OCCO3)cc1 | -3.223 | 18.93
Cc1cccc(N(C)Cc2cc(=O)n3oc(C)cc3n2)c1 | -10.27 | 3.631
COc1cc(N2CC[C@@H](OC)[C@@H]2Cc2ccccc2)ncn1 | -14 | 3.652 & 6.973
COCCc1noc(CN2C(=O)OC[C@@H]2C(C)C)n1 | 20.91 | 0.5821 & 0.3406
O=C(c1ccc(=O)[nH]n1)N1CC(c2nc(Cc3ccccc3)no2)C1 | 13.63 | -3.143 & -21.61
CC(C)[C@H](NC(=O)NC1CCS(=O)(=O)C1)C(=O)Nc1cccnc1 (stereo partly shown) | -21.05 | -21.88
CCOc1cc(CN2CCCC2)ccc1Oc1cccc(C#N)n1 | -27.28 | 3.607
Cc1nn(C)c(C)c1C1CCCN1c1ncnc2c1CCC2 (stereo not shown) | 1.172 | 6.987
[H][C@@]12CCCO[C@]1([H])[C@H](NC(=O)CC1CC1)CN(Cc1ccoc1)C2 | 98.22 | -19.14 & -9.931
Cc1cnn(CC2CCCCN2Cc2c(C)noc2C)c1 (stereo not shown) | 15.95 | 27.75
O=C(NCCc1ccccn1)N1CCOC(c2ccccc2Cl)C1 (stereo not shown) | 16.5 | -2.056
[H][C@]12CCN(C(=O)C3CCCO3)CC[C@@]1([H])S(=O)(=O)N(CC(C)C)C2 (stereo partly shown) | 11.84 | -10.39 & 82.22
c1ccc(-c2nnc(CN3CCCC3Cn3cncn3)o2)cc1 (stereo not shown) | 8.37 | 27.66
Cn1ncc2c1CN(Cc1cccnc1)CC2COCC1CC1.O=C(O)C(F)(F)F.O=C(O)C(F)(F)F.O=C(O)C(F)(F)F (stereo not shown) | -5.274 | 16.52
O=C(c1ccoc1)N1CCC2(CC1)C(=O)Nc1ccccc12 | 5.222 | 32.99
Cc1csc(CNC(=O)NC2CCCc3c2cnn3CCO)n1 (stereo not shown) | -14.66 & -5.221 | -2.488
CNC(=O)CCN(C)c1nc(-c2ccncc2)nc2c1CCNC2 | -11.76 | 4.054 & -6.294
CNS(=O)(=O)c1ccc(CNC(=O)C2CCCN(C)C2)cc1 (stereo not shown) | -0.4056 | 1.623
O=C1CCC(=O)N1Cc1ccc(C(=O)N2CCCC2c2cccs2)cc1 (stereo not shown) | -1.647 | -11.53
CC(C)N(CCNC(=O)c1ccc(S(=O)(=O)NC2CC2)cc1)C(C)C | -10.81 | -4.341
O=C(NC1CC1)c1ccc2ccc(N3CCN(CC4CC4)CC3)n2c1 | 23.02 | 22
CC(C)c1nc(C2CCCN(C(=O)CCn3ccnc3)C2)no1 (stereo not shown) | -46.47 | -6.831
CN(C)c1ncccc1CNS(=O)(=O)c1ccc(F)c(F)c1 | 7.618 | 13.79
CN(Cc1cccs1)C(=O)CN1CCCCC1Cn1cncn1 (stereo not shown) | -8.928 | 15.11 & -15.26
O=C(C1CC1)N1CCC2(CC1)OCCO2 | -19.09 | -36.76 & -8.179
CCc1nnc(CN(CC)C(=O)C2CCC(=O)N(C3CCCC3)C2)o1 (stereo not shown) | 6.202 | -7.416
CC(=O)Nc1nc(C(=O)NCc2ccc(N3CCOCC3)nc2)cs1 | -35.19 | 17.8
Cc1ccc(C(=O)N2CCc3c(CN4CCCC4)nn(C)c3C2)cc1C.O=C(O)C(F)(F)F | -17.8 | -20.94
Cn1ccc(C(=O)NCc2ccc(N3CCCCCC3)nc2)cc1=O | 11.97 | 9.552
Cc1nnc(NCc2ccc(Br)cc2)o1 | 2.322 | -1.768 & 3.046
Cc1cccc(C(=O)Nc2ccc(OC3CCN(C)CC3)cc2)c1 | -5.352 | -37.98
Cc1nc(-c2nc(C(=O)N(C)C)c3ccccn23)cn1C(C)C | 3.577 | -8.918
Cc1nn(C)c(Cl)c1CNCc1cccnc1N1CCCCC1.Cl | 6.018 | -4.741
O=C(CCC1CCN(Cc2ccncc2)CC1)Nc1ccccc1Cl | -5.768 | -1.69 & 4.11
COc1ccc(C(N)=O)cc1NCc1nc(-c2cccs2)oc1C | -9.758 | -15.29
CN(C)C(=O)c1ccc(OC2CCOCC2)cc1 | 0.5175 | 11.79
O=C(NCc1ccc(Br)cc1)C1(O)CCSCC1 | 9.834 | 7.198
[H][C@@]12CN(C(=O)c3cc(C)oc3C)C[C@]1([H])[C@H]2CN(C)CCc1ccccn1 | 2.312 | -13.43
Cc1cc(CN2CCN(Cc3ccc(C#N)cc3F)CC2)no1 | -7.885 | 0.3784 & -8.898
Cc1cc(F)c(S(=O)(=O)NCc2ccnc(N(C)C)n2)cc1F | 11.52 | -9.807
COc1nc(C)c(C(=O)N2CCc3[nH]nc(Cc4ccccc4)c3C2)s1 | -4.775 | -11.46
[H][C@]12CN(C(C)=O)C[C@@]1([H])OCCN(S(=O)(=O)C1CC1)C2 | 18.19 | 33.53
CC(C)N(CCCNC(=O)C1CC1)S(C)(=O)=O | -19.5 | -0.7755
Cc1ncoc1C(=O)N1CCCC(c2ccc3c(N)nn(C)c3n2)C1 (stereo not shown) | -1.154 & -13.66 | -10.15
O=C(O)C(F)(F)F.O=C(O)C(F)(F)F.[H][C@@]12COC[C@]1(COCc1ccncc1)CN(Cc1ccsc1)C2 | -4.385 | -0.6662
CCOc1ncccc1C(=O)N(C)C1CCN(c2ccccn2)CC1 | 5.002 | 1.75

Repeated from the top, 5 entries:

structure,Mtb cholesterol medium,Mtb glucose medium
CNS(=O)(=O)CCCN1CCCC1c1noc(C2CC2)n1 (stereo not shown),4.393,-12.92
Cn1cccc1C(=O)NC1(C(=O)NCC2CC2)CCCC1,5.918,3.358
CCc1ccc(NS(=O)(=O)c2cc3c(c(C(=O)O)c2)OCCO3)cc1,-3.223,18.93
Cc1cccc(N(C)Cc2cc(=O)n3oc(C)cc3n2)c1,-10.27,3.631
COc1cc(N2CC[C@@H](OC)[C@@H]2Cc2ccccc2)ncn1,-14,3.652 & 6.973